One assay has as its target Axin-Rluc (mouse) (UniProt O35625). Put plainly: FRET or BRET; BRET^2 in live HEK 293 cells stably expressing Rfz1, Rluc and GFP2 fusions transiently co-transfected for 48 h; unstimulated or treated with Wnt3a (20 ng/ml) for 15 min (no significant change of the signal); DeepBlue C 5 μM; ratio of 515 nm over 400 nm. (In BRET a luciferase serves as donor, and the signal depends on an acceptor being close.)

Sequences of proteins named here, by UniProt entry; tags and fusion partners are left off.
UniProt O35625: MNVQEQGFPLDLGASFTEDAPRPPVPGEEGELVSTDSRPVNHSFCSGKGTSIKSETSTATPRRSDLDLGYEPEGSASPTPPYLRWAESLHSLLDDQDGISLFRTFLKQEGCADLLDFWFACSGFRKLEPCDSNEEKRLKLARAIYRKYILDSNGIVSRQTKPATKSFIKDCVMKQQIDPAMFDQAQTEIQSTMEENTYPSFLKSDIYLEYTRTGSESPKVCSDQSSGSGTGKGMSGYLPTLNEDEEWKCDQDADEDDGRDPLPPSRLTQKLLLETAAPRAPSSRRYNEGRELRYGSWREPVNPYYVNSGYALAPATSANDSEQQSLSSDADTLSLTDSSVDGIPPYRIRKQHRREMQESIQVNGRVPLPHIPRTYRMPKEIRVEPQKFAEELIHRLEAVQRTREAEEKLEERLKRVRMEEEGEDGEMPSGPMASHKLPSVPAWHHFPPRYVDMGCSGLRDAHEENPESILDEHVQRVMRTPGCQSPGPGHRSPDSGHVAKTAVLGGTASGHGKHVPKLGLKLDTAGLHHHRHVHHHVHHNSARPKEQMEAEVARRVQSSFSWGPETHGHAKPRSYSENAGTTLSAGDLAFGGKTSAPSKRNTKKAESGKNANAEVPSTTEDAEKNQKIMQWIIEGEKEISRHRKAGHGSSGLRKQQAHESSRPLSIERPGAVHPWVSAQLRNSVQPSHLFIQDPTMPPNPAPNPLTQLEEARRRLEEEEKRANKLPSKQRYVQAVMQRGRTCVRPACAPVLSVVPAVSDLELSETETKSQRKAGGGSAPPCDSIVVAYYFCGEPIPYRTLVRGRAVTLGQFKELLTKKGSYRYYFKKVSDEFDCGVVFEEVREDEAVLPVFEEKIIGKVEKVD
UniProt P49841: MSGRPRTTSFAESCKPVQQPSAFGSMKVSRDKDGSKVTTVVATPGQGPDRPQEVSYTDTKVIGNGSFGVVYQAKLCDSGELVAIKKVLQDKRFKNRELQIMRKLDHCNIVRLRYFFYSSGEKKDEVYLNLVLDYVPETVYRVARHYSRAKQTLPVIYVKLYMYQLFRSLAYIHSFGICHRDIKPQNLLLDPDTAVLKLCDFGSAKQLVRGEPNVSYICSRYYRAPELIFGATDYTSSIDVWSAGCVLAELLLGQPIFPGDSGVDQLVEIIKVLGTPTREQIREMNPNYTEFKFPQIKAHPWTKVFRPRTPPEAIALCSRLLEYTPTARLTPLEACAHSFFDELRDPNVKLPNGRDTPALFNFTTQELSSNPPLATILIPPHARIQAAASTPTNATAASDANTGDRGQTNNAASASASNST
UniProt P35222: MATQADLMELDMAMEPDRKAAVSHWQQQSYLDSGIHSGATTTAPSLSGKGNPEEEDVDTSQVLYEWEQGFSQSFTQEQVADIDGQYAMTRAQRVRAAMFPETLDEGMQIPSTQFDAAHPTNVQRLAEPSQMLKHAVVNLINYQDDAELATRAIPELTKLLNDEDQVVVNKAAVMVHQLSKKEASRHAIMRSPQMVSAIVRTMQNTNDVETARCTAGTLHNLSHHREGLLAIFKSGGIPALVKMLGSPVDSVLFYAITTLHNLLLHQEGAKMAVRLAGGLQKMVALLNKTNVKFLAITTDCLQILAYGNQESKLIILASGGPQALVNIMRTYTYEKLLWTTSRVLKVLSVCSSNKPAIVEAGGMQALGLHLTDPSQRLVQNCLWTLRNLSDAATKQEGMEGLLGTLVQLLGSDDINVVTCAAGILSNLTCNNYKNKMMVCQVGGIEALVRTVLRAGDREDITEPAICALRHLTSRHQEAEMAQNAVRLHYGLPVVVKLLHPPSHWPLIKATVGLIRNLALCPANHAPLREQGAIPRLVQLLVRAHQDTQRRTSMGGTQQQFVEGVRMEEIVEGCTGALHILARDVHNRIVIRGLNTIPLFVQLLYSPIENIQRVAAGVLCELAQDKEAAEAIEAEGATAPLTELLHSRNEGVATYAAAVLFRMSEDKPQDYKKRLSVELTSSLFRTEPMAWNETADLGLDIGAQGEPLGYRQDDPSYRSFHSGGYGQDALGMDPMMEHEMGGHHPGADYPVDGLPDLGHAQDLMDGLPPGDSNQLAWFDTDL

The target of a further assay is T1, Dvl2-Rluc (mouse) (UniProt Q60838).
T1 sequence: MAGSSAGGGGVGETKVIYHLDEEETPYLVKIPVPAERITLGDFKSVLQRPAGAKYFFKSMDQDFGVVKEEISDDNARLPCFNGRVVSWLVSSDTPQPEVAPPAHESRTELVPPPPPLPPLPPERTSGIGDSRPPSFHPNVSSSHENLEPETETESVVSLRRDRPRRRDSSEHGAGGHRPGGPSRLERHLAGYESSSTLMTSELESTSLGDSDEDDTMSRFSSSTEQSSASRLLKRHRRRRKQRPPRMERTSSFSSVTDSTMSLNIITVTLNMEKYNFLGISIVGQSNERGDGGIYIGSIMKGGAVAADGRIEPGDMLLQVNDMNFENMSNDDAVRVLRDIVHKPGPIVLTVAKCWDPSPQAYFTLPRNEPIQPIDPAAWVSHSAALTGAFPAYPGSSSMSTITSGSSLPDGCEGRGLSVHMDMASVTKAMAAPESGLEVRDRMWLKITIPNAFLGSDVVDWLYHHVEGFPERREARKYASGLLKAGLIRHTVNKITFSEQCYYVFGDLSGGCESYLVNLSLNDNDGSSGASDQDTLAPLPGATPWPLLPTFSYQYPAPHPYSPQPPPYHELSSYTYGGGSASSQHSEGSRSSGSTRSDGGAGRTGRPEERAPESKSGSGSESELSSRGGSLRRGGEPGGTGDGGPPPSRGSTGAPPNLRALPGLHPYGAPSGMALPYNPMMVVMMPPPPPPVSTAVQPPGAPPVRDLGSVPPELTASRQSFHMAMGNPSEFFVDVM
The description is as above.

Results are given in words; binding and its absence hold for the method and conditions named. Binding seen in cells or lysates may run through a third protein. Some results given as binding are weak or reduced against the parent protein; the word gives no strength. Sequences can lack the tags named with a protein.

This is an account of results in publication PMC2211465.

“GSK3-GFP2 (from UniProt P49841 1-420) (enzyme)”: the binding entry with Axin-Rluc (mouse) and with Dvl2-Rluc (mouse) was “binds” each time.
“β-catenin-GFP2 (from UniProt P35222 1-781)”: the binding result in the assay with Axin-Rluc (mouse) was “binds”.

B1: Dvl2-GFP2 (protein, UniProt Q60838 1-736)
chain: T1 sequence
Consider B1, for which, in the assay with Axin-Rluc (mouse), the binding entry is “binds”.
